Data as given in patent publication US10172961B2 (priority 2014, dated 2019).
At least one compound was matched to its structure with a doubt left.

What was measured:
MV G954 = system: MV G954; parameters: species or system SLAM×IFNARKO mice; conditions: mouse, in vivo, 6 mg/kg
MV G954 H/F = type: cell-based, Measles virus

SMILES	animal survival / protection from lethal MV encephalitis (MV G954)	IC90 ratio, HRC2 versus HRC2-25^OH-chol (MV G954 H/F)	IC90 (MV G954 H/F; read-out: IC90, inhibition of fusion)	reduction of viral infection (fluorescence level) (MV-IC323-EGFP)
CC[C@H](C)[C@H](NC(=O)[C@H](C)NC(=O)[C@H](CC(N)=O)NC(=O)CNC(=O)[C@H](CC(C)C)NC(=O)[C@H](CC(N)=O)NC(=O)[C@@H](NC(=O)CNC(=O)[C@@H](NC(=O)[C@H](CC(=O)O)NC(=O)[C@H](CC(C)C)NC(=O)[C@H](CCCNC(=N)N)NC(=O)[C@H](CCC(=O)O)NC(=O)[C@H](CC(C)C)NC(=O)[C@H](CO)NC(=O)[C@@H](NC(=O)[C@@H]1CCCN1C(=O)[C@@H]1CCCN1C(C)=O)[C@@H](C)CC)C(C)C)[C@@H](C)O)C(=O)N[C@@H](C)C(=O)N[C@@H](CCCCN)C(=O)N[C@@H](CC(C)C)C(=O)N[C@@H](CCC(=O)O)C(=O)N[C@@H](CC(=O)O)C(=O)N[C@@H](C)C(=O)N[C@@H](CCCCN)C(=O)N[C@@H](CCC(=O)O)C(=O)N[C@@H](CC(C)C)C(=O)N[C@@H](CC(C)C)C(=O)N[C@@H](CCC(=O)O)C(=O)N[C@@H](CO)C(=O)N[C@@H](CO)C(=O)N[C@@H](CC(=O)O)C(=O)N[C@@H](CCC(N)=O)C(=O)N[C@H](C(=O)N[C@@H](CC(C)C)C(=O)N[C@@H](CCCNC(=N)N)C(=O)NCC(=O)N[C@@H](CO)C(=O)NCC(=O)N[C@@H](CO)C(=O)NCC(=O)N[C@@H](CSC1=CC(=O)N(CCCC(=O)NCCOCCOCCOCCOCCC(=O)NCCNCCOC2CCC3(C)C(=CCC4C3CCC3(C)C(C(C)CCCC(C)C)CCC43)C2)C1=O)C(N)=O)[C@@H](C)CC (stereo partly shown) [MV HRC2]	did not really improve the animal survival	50 times	2 µM	–
CC[C@H](C)[C@H](NC(=O)[C@H](C)NC(=O)[C@H](CC(N)=O)NC(=O)CNC(=O)[C@H](CC(C)C)NC(=O)[C@H](CC(N)=O)NC(=O)[C@@H](NC(=O)CNC(=O)[C@@H](NC(=O)[C@H](CC(=O)O)NC(=O)[C@H](CC(C)C)NC(=O)[C@H](CCCNC(=N)N)NC(=O)[C@H](CCC(=O)O)NC(=O)[C@H](CC(C)C)NC(=O)[C@H](CO)NC(=O)[C@@H](NC(=O)[C@@H]1CCCN1C(=O)[C@@H]1CCCN1C(C)=O)[C@@H](C)CC)C(C)C)[C@@H](C)O)C(=O)N[C@@H](C)C(=O)N[C@@H](CCCCN)C(=O)N[C@@H](CC(C)C)C(=O)N[C@@H](CCC(=O)O)C(=O)N[C@@H](CC(=O)O)C(=O)N[C@@H](C)C(=O)N[C@@H](CCCCN)C(=O)N[C@@H](CCC(=O)O)C(=O)N[C@@H](CC(C)C)C(=O)N[C@@H](CC(C)C)C(=O)N[C@@H](CCC(=O)O)C(=O)N[C@@H](CO)C(=O)N[C@@H](CO)C(=O)N[C@@H](CC(=O)O)C(=O)N[C@@H](CCC(N)=O)C(=O)N[C@H](C(=O)N[C@@H](CC(C)C)C(=O)N[C@@H](CCCNC(=N)N)C(=O)NCC(=O)N[C@@H](CO)C(=O)NCC(=O)N[C@@H](CO)C(=O)NCC(=O)N[C@@H](CSC1=CC(=O)N(CCC(=O)NCCOCCOCCOCCOCCOCCOCCOCCOCCOCCOCCOCCNC(=O)CCN2C(=O)C=C(SC[C@H](NC(=O)CNC(=O)[C@H](CO)NC(=O)CNC(=O)[C@H](CO)NC(=O)CNC(=O)[C@H](CCCNC(=N)N)NC(=O)[C@H](CC(C)C)NC(=O)[C@@H](NC(=O)[C@H](CCC(N)=O)NC(=O)[C@H](CC(=O)O)NC(=O)[C@H](CO)NC(=O)[C@H](CO)NC(=O)[C@H](CCC(=O)O)NC(=O)[C@H](CC(C)C)NC(=O)[C@H](CC(C)C)NC(=O)[C@H](CCC(=O)O)NC(=O)[C@H](CCCCN)NC(=O)[C@H](C)NC(=O)[C@H](CC(=O)O)NC(=O)[C@H](CCC(=O)O)NC(=O)[C@H](CC(C)C)NC(=O)[C@H](CCCCN)NC(=O)[C@H](C)NC(=O)[C@@H](NC(=O)[C@H](C)NC(=O)[C@H](CC(N)=O)NC(=O)CNC(=O)[C@H](CC(C)C)NC(=O)[C@H](CC(N)=O)NC(=O)[C@@H](NC(=O)CNC(=O)[C@@H](NC(=O)[C@H](CC(=O)O)NC(=O)[C@H](CC(C)C)NC(=O)[C@H](CCCNC(=N)N)NC(=O)[C@H](CCC(=O)O)NC(=O)[C@H](CC(C)C)NC(=O)[C@H](CO)NC(=O)[C@@H](NC(=O)[C@@H]3CCCN3C(=O)[C@@H]3CCCN3C(C)=O)[C@@H](C)CC)C(C)C)[C@@H](C)O)[C@@H](C)CC)[C@@H](C)CC)C(N)=O)C2=O)C1=O)C(N)=O)[C@@H](C)CC [MV HRC3]	–	–	–	neither MV HRC 1 nor MV HRC 3 reduced viral infection
